# In PMC6098150:
# Protein sequences, listed by entry. Tags and fused reporters are not part of them. Lines headed by an entry give the natural chain unless they say otherwise; changes in a name come on top. Residues count along the entry.
# UniProt A0A5F5PTW4: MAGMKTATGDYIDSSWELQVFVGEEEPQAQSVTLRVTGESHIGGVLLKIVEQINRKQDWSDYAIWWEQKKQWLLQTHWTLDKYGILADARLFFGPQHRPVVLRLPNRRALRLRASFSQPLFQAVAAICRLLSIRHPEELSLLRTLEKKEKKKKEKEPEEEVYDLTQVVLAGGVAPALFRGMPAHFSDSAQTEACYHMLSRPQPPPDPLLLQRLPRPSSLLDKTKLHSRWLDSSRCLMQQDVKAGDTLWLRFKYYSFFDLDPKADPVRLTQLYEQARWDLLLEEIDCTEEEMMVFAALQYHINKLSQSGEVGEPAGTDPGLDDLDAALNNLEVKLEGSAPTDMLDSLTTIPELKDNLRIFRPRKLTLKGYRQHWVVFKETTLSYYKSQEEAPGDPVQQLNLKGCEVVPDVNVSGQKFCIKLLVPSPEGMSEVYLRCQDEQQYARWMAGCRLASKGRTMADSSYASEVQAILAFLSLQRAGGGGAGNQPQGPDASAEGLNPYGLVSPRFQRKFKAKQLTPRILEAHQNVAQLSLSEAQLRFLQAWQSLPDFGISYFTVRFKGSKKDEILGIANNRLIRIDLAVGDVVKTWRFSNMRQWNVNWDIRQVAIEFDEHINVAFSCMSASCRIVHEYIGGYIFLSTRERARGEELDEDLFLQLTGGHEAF
# UniProt F6UVF8: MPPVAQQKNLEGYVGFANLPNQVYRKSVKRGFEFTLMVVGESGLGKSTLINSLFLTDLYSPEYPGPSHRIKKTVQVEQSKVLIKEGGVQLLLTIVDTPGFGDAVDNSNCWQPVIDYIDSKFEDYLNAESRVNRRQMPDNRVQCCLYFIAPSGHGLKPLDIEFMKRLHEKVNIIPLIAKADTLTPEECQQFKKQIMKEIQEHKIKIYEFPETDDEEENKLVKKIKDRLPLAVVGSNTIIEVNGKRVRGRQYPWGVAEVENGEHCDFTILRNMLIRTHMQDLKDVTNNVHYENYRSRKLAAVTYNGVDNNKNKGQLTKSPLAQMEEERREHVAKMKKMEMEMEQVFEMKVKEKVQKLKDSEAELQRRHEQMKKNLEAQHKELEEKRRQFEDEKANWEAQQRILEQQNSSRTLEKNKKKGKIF
# UniProt F7DZI2: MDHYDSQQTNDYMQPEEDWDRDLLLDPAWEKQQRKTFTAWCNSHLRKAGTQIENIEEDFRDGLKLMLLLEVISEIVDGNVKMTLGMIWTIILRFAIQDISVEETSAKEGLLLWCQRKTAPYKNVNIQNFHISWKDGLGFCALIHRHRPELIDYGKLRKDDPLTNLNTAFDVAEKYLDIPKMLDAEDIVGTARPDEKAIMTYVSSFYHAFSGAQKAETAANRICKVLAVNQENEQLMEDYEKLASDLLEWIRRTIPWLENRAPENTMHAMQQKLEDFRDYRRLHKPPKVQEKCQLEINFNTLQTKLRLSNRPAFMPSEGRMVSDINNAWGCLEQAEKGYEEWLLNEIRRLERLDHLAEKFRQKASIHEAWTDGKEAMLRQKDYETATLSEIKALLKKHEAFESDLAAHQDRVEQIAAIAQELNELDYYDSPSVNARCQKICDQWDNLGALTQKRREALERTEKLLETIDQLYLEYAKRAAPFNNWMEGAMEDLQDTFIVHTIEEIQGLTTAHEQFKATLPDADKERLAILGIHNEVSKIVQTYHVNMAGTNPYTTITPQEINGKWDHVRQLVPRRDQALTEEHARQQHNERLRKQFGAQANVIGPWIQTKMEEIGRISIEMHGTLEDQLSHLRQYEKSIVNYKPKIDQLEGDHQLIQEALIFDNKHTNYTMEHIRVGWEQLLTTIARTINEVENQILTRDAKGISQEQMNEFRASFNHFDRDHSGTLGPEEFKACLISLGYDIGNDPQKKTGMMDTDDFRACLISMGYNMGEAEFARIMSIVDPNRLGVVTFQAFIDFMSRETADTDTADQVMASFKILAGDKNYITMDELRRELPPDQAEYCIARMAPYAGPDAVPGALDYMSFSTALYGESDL
# UniProt Q28372: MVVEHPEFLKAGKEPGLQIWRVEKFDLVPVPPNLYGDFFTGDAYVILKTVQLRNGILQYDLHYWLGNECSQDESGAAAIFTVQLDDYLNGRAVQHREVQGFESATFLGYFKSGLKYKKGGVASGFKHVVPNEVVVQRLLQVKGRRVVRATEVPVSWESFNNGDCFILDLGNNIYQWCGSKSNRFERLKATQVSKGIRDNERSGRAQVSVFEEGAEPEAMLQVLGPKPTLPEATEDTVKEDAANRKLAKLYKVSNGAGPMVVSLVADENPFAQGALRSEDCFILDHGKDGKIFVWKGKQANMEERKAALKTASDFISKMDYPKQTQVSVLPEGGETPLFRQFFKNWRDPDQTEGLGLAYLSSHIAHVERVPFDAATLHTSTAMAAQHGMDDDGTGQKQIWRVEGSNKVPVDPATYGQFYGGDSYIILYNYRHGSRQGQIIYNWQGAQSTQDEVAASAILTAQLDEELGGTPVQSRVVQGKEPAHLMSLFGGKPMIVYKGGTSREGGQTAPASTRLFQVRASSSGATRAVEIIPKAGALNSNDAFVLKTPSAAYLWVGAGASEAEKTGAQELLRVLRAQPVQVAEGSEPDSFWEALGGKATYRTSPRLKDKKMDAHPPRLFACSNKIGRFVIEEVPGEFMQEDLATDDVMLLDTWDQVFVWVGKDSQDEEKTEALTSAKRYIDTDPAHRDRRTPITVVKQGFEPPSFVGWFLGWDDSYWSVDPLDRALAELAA
# UniProt Q28377, residues 32-2477: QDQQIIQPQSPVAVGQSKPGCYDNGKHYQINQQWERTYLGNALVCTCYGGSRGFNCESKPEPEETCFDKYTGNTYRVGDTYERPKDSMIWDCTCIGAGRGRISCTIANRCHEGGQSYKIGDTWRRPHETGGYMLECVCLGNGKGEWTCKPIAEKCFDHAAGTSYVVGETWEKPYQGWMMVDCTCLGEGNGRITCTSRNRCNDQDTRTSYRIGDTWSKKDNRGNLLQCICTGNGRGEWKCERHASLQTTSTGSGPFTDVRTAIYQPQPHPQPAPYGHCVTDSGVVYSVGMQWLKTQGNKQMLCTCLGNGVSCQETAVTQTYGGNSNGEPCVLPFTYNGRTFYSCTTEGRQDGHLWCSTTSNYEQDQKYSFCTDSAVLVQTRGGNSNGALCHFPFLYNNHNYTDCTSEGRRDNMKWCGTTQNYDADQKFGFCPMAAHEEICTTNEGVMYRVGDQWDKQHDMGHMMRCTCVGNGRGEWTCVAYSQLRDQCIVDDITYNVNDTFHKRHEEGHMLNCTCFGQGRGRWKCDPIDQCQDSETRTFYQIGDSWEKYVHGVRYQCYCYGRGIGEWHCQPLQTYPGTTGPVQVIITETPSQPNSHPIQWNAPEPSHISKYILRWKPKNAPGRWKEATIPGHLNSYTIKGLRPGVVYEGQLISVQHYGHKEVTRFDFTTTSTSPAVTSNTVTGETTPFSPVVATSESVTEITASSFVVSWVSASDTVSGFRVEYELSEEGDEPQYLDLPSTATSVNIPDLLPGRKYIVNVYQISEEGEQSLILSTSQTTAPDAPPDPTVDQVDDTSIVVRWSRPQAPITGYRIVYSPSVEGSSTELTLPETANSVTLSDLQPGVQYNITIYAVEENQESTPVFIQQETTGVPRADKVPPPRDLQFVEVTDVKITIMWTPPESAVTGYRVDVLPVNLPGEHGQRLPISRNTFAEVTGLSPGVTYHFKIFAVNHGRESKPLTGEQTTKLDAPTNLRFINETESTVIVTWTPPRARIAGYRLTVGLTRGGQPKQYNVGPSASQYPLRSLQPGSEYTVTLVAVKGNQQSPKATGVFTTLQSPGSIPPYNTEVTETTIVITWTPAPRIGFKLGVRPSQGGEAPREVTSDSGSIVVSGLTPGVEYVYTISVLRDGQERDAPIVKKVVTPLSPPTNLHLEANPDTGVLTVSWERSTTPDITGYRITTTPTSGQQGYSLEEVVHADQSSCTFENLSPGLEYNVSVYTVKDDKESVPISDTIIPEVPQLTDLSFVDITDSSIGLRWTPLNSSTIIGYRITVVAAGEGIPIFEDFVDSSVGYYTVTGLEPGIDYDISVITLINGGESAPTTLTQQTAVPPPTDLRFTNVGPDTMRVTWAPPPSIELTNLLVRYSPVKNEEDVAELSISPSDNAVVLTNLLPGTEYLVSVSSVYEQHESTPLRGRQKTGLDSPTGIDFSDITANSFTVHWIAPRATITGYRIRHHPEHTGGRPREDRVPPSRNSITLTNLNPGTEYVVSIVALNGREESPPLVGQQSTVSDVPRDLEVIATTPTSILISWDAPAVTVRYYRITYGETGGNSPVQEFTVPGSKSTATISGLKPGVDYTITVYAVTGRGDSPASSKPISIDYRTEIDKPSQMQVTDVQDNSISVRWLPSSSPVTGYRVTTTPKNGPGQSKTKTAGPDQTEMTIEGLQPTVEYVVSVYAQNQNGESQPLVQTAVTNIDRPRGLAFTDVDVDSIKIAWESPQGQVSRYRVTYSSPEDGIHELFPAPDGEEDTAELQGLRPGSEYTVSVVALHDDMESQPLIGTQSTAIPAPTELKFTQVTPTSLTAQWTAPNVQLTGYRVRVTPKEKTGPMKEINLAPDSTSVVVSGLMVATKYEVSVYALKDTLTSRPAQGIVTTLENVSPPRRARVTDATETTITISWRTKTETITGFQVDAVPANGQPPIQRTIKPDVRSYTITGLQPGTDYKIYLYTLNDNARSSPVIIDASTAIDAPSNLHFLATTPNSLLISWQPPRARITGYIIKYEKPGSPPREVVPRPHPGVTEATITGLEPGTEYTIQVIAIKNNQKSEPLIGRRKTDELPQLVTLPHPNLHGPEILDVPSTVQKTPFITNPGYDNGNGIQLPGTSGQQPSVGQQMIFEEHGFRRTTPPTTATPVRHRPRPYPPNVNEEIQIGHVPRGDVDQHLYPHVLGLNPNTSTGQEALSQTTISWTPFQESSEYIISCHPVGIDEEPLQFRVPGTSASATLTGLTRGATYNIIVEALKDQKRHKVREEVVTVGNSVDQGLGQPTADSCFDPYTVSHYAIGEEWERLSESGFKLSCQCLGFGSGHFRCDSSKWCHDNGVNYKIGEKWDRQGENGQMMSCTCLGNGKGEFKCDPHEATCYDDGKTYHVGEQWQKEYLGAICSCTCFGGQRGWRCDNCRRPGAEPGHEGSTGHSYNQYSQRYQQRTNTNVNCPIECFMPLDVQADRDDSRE
# UniProt F6SXQ9: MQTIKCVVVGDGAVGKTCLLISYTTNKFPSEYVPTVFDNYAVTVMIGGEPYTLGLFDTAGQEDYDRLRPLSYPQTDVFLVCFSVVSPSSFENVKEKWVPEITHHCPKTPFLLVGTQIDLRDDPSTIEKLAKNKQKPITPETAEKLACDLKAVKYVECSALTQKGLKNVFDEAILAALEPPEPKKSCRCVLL
# UniProt F6QQL7: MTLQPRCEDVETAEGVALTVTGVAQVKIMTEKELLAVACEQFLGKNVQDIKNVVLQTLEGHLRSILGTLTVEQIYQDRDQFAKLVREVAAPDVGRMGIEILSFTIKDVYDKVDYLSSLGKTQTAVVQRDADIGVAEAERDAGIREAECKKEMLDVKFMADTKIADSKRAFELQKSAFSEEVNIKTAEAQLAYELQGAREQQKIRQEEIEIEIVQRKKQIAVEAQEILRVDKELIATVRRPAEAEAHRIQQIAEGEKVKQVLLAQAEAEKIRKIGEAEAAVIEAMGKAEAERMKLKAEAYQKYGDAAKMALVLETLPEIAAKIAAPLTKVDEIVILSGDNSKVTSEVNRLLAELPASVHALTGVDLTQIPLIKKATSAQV
# UniProt F7B5C4: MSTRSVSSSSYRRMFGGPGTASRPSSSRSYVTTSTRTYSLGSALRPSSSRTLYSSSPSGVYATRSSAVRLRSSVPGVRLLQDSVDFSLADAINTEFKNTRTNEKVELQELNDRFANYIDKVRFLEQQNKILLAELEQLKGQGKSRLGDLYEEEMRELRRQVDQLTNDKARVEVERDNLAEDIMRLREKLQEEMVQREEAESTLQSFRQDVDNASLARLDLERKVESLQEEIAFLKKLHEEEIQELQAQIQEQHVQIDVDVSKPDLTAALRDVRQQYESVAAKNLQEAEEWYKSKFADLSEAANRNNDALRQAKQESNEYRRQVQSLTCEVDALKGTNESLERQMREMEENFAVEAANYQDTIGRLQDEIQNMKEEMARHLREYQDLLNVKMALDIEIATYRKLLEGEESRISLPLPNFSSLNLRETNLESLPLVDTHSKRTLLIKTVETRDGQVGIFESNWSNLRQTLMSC
# UniProt F6PZY1: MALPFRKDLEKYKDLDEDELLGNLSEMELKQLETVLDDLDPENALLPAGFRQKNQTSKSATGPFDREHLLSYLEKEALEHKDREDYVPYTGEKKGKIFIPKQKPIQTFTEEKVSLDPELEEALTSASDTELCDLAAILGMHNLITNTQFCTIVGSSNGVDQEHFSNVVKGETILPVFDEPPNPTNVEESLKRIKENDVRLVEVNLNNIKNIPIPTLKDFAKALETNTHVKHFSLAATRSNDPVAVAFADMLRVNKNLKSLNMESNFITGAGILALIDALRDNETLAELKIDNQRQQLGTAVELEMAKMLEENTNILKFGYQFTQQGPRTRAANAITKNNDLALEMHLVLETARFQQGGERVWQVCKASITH
# These are yes or no findings as the source states them, for the method shown. In cells and extracts the contact can be indirect. These calls come from enrichment with a bait or labelling near it, and not all partners need be listed.
# Molecular target: Dedicator of cytokinesis 8 (horse (endogenous in equine PBL)) (UniProt F6RU57)
# Assay: affinity purification with mass spectrometry; immunoprecipitation of endogenous DOCK8 (rabbit polyclonal H-159 on Protein G Sepharose) from PBL lysates of three healthy and three ERU horses; TBS, 2% CHAPS; overnight at 4 °C; label-free LC-MS/MS; ≥2 peptide counts, enrichment factor ≥4
row,Substance,binding
1,FERMT3 (from UniProt A0A5F5PTW4 1-663),binds
2,CORO1C (from UniProt A0A3Q2IEP2 1-480),binds
3,Septin 7 (from UniProt F6UVF8),binds
4,"Actinin, alpha 1 (from UniProt F7DZI2)",binds
5,GSN (from UniProt Q28372 1-731),binds
6,FN1 (from UniProt Q28377 32-2477),binds

# Molecular target: Septin 7 (horse (endogenous in equine PBL)) (UniProt F6UVF8)
# Assay: affinity purification with mass spectrometry; immunoprecipitation of endogenous septin 7 (rat anti-septin 7 clone 19A4 on Protein G Sepharose) from PBL lysate of a healthy horse; TBS (50 mM Tris, 150 mM NaCl), 2% CHAPS; overnight at 4 °C; label-free LC-MS/MS; enrichment factor ≥18 against isotype control
row,Substance,binding
1,Cell division cycle 42 (from UniProt F6SXQ9),binds
2,"Actinin, alpha 1 (from UniProt F7DZI2)",binds
3,Myosin IG (from UniProt F7AMC4),binds
4,Flotillin 2 (from UniProt F6QQL7),binds
5,Vimentin (from UniProt F7B5C4),binds
6,Dedicator of cytokinesis 8 (from UniProt F6RU57),binds
7,Tropomodulin 3 (ubiquitous) (from UniProt F6PZY1),binds
